Values from PubChem BioAssay AID1259315 (Drosophila RNAi Screening Center, 2017).
Shown is a random part of 418 reagents. 17 of them (4.1%) were called active. 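z-scores average two replicate plates; all hits raised ATP and none lowered it.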 Not stated in the record: the amount of reagent.

Test: 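Fly genes whose loss alters cell survival under toxic zinc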 (primary screen)
System: Drosophila S2R+ cells
Reagents: long dsRNA against Drosophila genes
Timing: 5 days (4 days knock-down, then 1 day with zinc)
Treatment: zinc chloride added to 15 mM final for 1 day
Measured: 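ATP luminescence reflecting cell viability after 4 days of knock-down then 1 day with 15 mM zinc chloride; mean z-score of two replicate plates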
Reading the numbers: mean ATP z-score: higher = more ATP, more cells surviving zinc
Rule for the call: 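Hit when the mean ATP z-score exceeds 1.5 or falls below -1.5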

Depletion of Gbp2 [DRSC06069] resulted in: mean ATP z-score -0.0918; inactive.
AP-1sigma [DRSC15899] gave mean ATP z-score -0.357; inactive.
With knock-down of AP-1sigma [DRSC40317], the record shows mean ATP z-score -0.169; inactive.
Vha100-5 [DRSC26439] scored mean ATP z-score -0.285; inactive.
Silencing of Vha100-5 [DRSC30649] came out at: mean ATP z-score -0.324; inactive.
Silencing of Vha100-5 [DRSC30650] gave: mean ATP z-score -0.168; inactive.
With knock-down of Vps35 [DRSC04519], the screen gave mean ATP z-score -0.0348; inactive.
After knock-down of Vps35 [DRSC28790] the results were mean ATP z-score -0.395; inactive.
Knock-down of Vps35 [DRSC36445] gave: mean ATP z-score -0.424; inactive.
Gal [DRSC03134] gave mean ATP z-score 0.434; inactive.
After knock-down of Gal [DRSC24562] the results were mean ATP z-score -0.239; inactive.
After knock-down of Wdr24 [DRSC14151] the results were mean ATP z-score 0.228; inactive.
Depletion of Wdr24 [DRSC36452] resulted in: mean ATP z-score -0.324; inactive.
With knock-down of Vps16B [DRSC15304], the screen gave mean ATP z-score -0.219; inactive.
Depletion of Vps16B [DRSC34692] gave: mean ATP z-score -0.269; inactive.
Silencing of Vps16B [DRSC34693] gave: mean ATP z-score -0.195; inactive.
For Tsp39D [DRSC03099], the values are mean ATP z-score -0.138; inactive.
After knock-down of Tsp39D [DRSC40050], the screen gave mean ATP z-score -0.385; inactive.
Depletion of Xpac [DRSC18730] came out at: mean ATP z-score -0.238; inactive.
Xpac [DRSC25963] scored mean ATP z-score -0.337; inactive.
After knock-down of Xpac [DRSC41029], the record shows mean ATP z-score -0.222; inactive.

Not a retest: 10 of the entries above.
Vha100-5 [DRSC30649] → mean ATP z-score = -0.324; activity call = inactive
Vha100-5 [DRSC30650] → mean ATP z-score = -0.168; activity call = inactive
Vps35 [DRSC04519] → mean ATP z-score = -0.0348; activity call = inactive
Vps35 [DRSC28790] → mean ATP z-score = -0.395; activity call = inactive
Vps35 [DRSC36445] → mean ATP z-score = -0.424; activity call = inactive
Gal [DRSC03134] → mean ATP z-score = 0.434; activity call = inactive
Gal [DRSC24562] → mean ATP z-score = -0.239; activity call = inactive
Wdr24 [DRSC14151] → mean ATP z-score = 0.228; activity call = inactive
Wdr24 [DRSC36452] → mean ATP z-score = -0.324; activity call = inactive
Vps16B [DRSC15304] → mean ATP z-score = -0.219; activity call = inactive

Additional results follow:
Against CG17134 [DRSC02583], the values are mean ATP z-score 0.442; inactive.
Silencing of CG5731 [DRSC02883] gave: mean ATP z-score -0.111; inactive.
With knock-down of CG5731 [DRSC25969] the results were mean ATP z-score -0.425; inactive.
After knock-down of CG5731 [DRSC37705], the screen gave mean ATP z-score -0.373; inactive.
Knock-down of Hexo2 [DRSC18671] came out at: mean ATP z-score -0.287; inactive.
After knock-down of Pex16 [DRSC11750], the screen gave mean ATP z-score -0.187; inactive.
After knock-down of Vps26 [DRSC23556] the results were mean ATP z-score 0.482; inactive.
After knock-down of Vps26 [DRSC37369] the results were mean ATP z-score -0.308; inactive.
Sod2 [DRSC07554] showed mean ATP z-score 0.0225; inactive.
After knock-down of Sod2 [DRSC27050] the results were mean ATP z-score -0.22; inactive.
Knock-down of CG3961 [DRSC10390] resulted in: mean ATP z-score 1.17; inactive.
Depletion of CG3961 [DRSC10391] resulted in: mean ATP z-score -0.247; inactive.
CG3961 [DRSC35309] showed mean ATP z-score -0.197; inactive.
Silencing of JhI-21 [DRSC02161] gave: mean ATP z-score -0.205; inactive.
Against JhI-21 [DRSC29181], the entry reads mean ATP z-score -0.319; inactive.
Against Hexo1 [DRSC08663] the deposit lists mean ATP z-score -0.278; inactive.
CRAT [DRSC12523] showed mean ATP z-score -0.323; inactive.
CRAT [DRSC29377] showed mean ATP z-score -0.462; inactive.
With knock-down of VhaM9.7-a [DRSC08289], the record shows mean ATP z-score 0.0495; inactive.
With knock-down of VhaM9.7-a [DRSC28340], the screen gave mean ATP z-score -0.268; inactive.
With knock-down of Acsf2 [DRSC02172] the results were mean ATP z-score 0.00896; inactive.
For Acsf2 [DRSC27832], the values are mean ATP z-score -0.419; inactive.
Silencing of TrpRS-m [DRSC10848] came out at: mean ATP z-score 2.05; active.
Silencing of TrpRS-m [DRSC40413] came out at: mean ATP z-score -0.509; inactive.
After knock-down of CG32191 [DRSC10522], the record shows mean ATP z-score -0.228; inactive.
Depletion of Mpv17 [DRSC17198] came out at: mean ATP z-score -0.217; inactive.
Against Mpv17 [DRSC39911], the values are mean ATP z-score -0.366; inactive.
VhaPPA1-2 [DRSC16176] showed mean ATP z-score -0.18; inactive.
Knock-down of VhaPPA1-2 [DRSC25591] resulted in: mean ATP z-score -0.174; inactive.
For Vha14-2 [DRSC12145], the values are mean ATP z-score -0.0402; inactive.
Depletion of Naglu [DRSC02267] came out at: mean ATP z-score -0.0463; inactive.
Depletion of Naglu [DRSC33899] gave: mean ATP z-score -0.0384; inactive.
Against pic [DRSC16639], the entry reads mean ATP z-score 1.88; active.
For pic [DRSC31603], the entry reads mean ATP z-score 1.73; active.
Silencing of pic [DRSC31604] resulted in: mean ATP z-score 1.4; inactive.
Knock-down of ClC-b [DRSC07220] gave: mean ATP z-score -0.17; inactive.
ClC-b [DRSC37711] scored mean ATP z-score -0.407; inactive.
ClC-b [DRSC39990] scored mean ATP z-score -0.4; inactive.
Against CG7300 [DRSC03044] the deposit lists mean ATP z-score -0.399; inactive.
Against CG7300 [DRSC28239], the values are mean ATP z-score -0.354; inactive.
